# Data reported in the supplement of paper PMC8728848.
# The other results are listed elsewhere or left out.
# Legend:
# Experiment in all cases: glycan array binding signal (z-score within array); higher = stronger binding
# Settings in all cases: glycan notation: IUPAC condensed, linker removed
# [1] = biological target: GlcNAc(a1-6)Gal(b1-4)GlcNAc
# In short: (§1)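 Arrays were curated from the Consortium for Functional Glycomics database, 3228 in total, and kept only where the protein sequence was available. Binding is expressed as a within-array Z-score. This score was averaged across arrays of the same protein sequence at different concentrations or buffers and across linkers, and negative values can be read as non-binding.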
# [2] = biological target: GlcNAc(b1-2)Gal(b1-3)GalNAc
# In short: as §1
# [3] = biological target: GlcNAc(b1-2)Man(a1-3)[GlcNAc(b1-2)Man(a1-6)]Man(b1-4)GlcNAc(b1-4)GlcNAc
# In short: as §1
# [4] = biological target: GlcNAc(b1-2)Man(a1-3)[GlcNAc(b1-2)Man(a1-6)]Man(b1-4)GlcNAc(b1-4)[Fuc(a1-6)]GlcNAc
# In short: as §1
# [5] = biological target: GlcNAc(b1-2)Man(a1-3)[GlcNAc(b1-4)][GlcNAc(b1-2)Man(a1-6)]Man(b1-4)GlcNAc(b1-4)GlcNAc
# In short: as §1
# [6] = biological target: GlcNAc(b1-2)Man(a1-3)[GlcNAc(b1-4)][GlcNAc(b1-2)Man(a1-6)]Man(b1-4)GlcNAc(b1-4)[Fuc(a1-6)]GlcNAc
# In short: as §1
# [7] = biological target: GlcNAc(b1-2)[GlcNAc(b1-4)]Man(a1-3)[GlcNAc(b1-2)Man(a1-6)]Man(b1-4)GlcNAc(b1-4)GlcNAc
# In short: as §1
# [8] = biological target: GlcNAc(b1-2)[GlcNAc(b1-4)]Man(a1-3)[GlcNAc(b1-4)][GlcNAc(b1-2)Man(a1-6)]Man(b1-4)GlcNAc(b1-4)GlcNAc
# In short: as §1
# [9] = biological target: GlcNAc(b1-2)[GlcNAc(b1-4)]Man(a1-3)[GlcNAc(b1-4)][GlcNAc(b1-2)[GlcNAc(b1-6)]Man(a1-6)]Man(b1-4)GlcNAc(b1-4)GlcNAc
# In short: as §1
# [10] = biological target: GlcNAc(b1-2)[GlcNAc(b1-4)]Man(a1-3)[GlcNAc(b1-4)][GlcNAc(b1-2)[GlcNAc(b1-6)]Man(a1-6)]Man(b1-4)GlcNAc(b1-4)[Fuc(a1-6)]GlcNAc
# In short: as §1
# [11] = biological target: GlcNAc(b1-2)[GlcNAc(b1-6)]Man(a1-6)[GlcNAc(b1-2)Man(a1-3)]Man(b1-4)GlcNAc(b1-4)GlcNAc
# In short: as §1
# [12] = biological target: GlcNAc(b1-2)[GlcNAc(b1-6)]Man(a1-6)[GlcNAc(b1-2)Man(a1-3)]Man(b1-4)GlcNAc(b1-4)[Fuc(a1-6)]GlcNAc
# In short: as §1
# [13] = biological target: GlcNAc(b1-2)[GlcNAc(b1-6)]Man(a1-6)[GlcNAc(b1-4)][GlcNAc(b1-2)Man(a1-3)]Man(b1-4)GlcNAc(b1-4)GlcNAc
# In short: as §1
# GlcNAc(b1-3)Fuc = biological target: GlcNAc(b1-3)Fuc
# In short: as §1
# GlcNAc(b1-3)Gal = biological target: GlcNAc(b1-3)Gal
# In short: as §1
# [14] = biological target: GlcNAc(b1-3)Gal(b1-3)GalNAc
# In short: as §1
# GlcNAc(b1-3)Gal(b1-4)Glc = biological target: GlcNAc(b1-3)Gal(b1-4)Glc
# In short: as §1
# [15] = biological target: GlcNAc(b1-3)Gal(b1-4)GlcNAc
# In short: as §1
# [16] = biological target: GlcNAc(b1-3)Gal(b1-4)GlcNAc(b1-2)Man(a1-3)[GlcNAc(b1-3)Gal(b1-4)GlcNAc(b1-2)Man(a1-6)]Man(b1-4)GlcNAc(b1-4)GlcNAc
# In short: as §1
# [17] = biological target: GlcNAc(b1-3)Gal(b1-4)GlcNAc(b1-2)Man(a1-3)[GlcNAc(b1-3)Gal(b1-4)GlcNAc(b1-2)Man(a1-6)]Man(b1-4)GlcNAc(b1-4)[Fuc(a1-6)]GlcNAc
# In short: as §1
# [18] = biological target: GlcNAc(b1-3)Gal(b1-4)GlcNAc(b1-2)[GlcNAc(b1-3)Gal(b1-4)GlcNAc(b1-6)]Man(a1-6)[GlcNAc(b1-3)Gal(b1-4)GlcNAc(b1-2)Man(a1-3)]Man(b1-4)GlcNAc(b1-4)GlcNAc
# In short: as §1
# [19] = biological target: GlcNAc(b1-3)Gal(b1-4)GlcNAc(b1-3)Gal(b1-4)GlcNAc
# In short: as §1
# [20] = biological target: GlcNAc(b1-3)Gal(b1-4)GlcNAc(b1-3)Gal(b1-4)GlcNAc(b1-2)Man(a1-3)[GlcNAc(b1-3)Gal(b1-4)GlcNAc(b1-3)Gal(b1-4)GlcNAc(b1-2)Man(a1-6)]Man(b1-4)GlcNAc(b1-4)GlcNAc
# In short: as §1
# [21] = biological target: GlcNAc(b1-3)Gal(b1-4)GlcNAc(b1-3)Gal(b1-4)GlcNAc(b1-2)Man(a1-3)[GlcNAc(b1-3)Gal(b1-4)GlcNAc(b1-3)Gal(b1-4)GlcNAc(b1-2)Man(a1-6)]Man(b1-4)GlcNAc(b1-4)[Fuc(a1-6)]GlcNAc
# In short: as §1
# [22] = biological target: GlcNAc(b1-3)Gal(b1-4)GlcNAc(b1-3)Gal(b1-4)GlcNAc(b1-2)[GlcNAc(b1-3)Gal(b1-4)GlcNAc(b1-3)Gal(b1-4)GlcNAc(b1-6)]Man(a1-6)[GlcNAc(b1-3)Gal(b1-4)GlcNAc(b1-3)Gal(b1-4)GlcNAc(b1-2)Man(a1-3)]Man(b1-4)GlcNAc(b1-4)[Fuc(a1-6)]GlcNAc
# In short: as §1
# [23] = biological target: GlcNAc(b1-3)Gal(b1-4)GlcNAc(b1-3)Gal(b1-4)GlcNAc(b1-3)Gal(b1-4)GlcNAc(b1-2)Man(a1-3)[GlcNAc(b1-3)Gal(b1-4)GlcNAc(b1-3)Gal(b1-4)GlcNAc(b1-3)Gal(b1-4)GlcNAc(b1-2)Man(a1-6)]Man(b1-4)GlcNAc(b1-4)GlcNAc
# In short: as §1
# [24] = biological target: GlcNAc(b1-3)Gal(b1-4)GlcNAc(b1-3)Gal(b1-4)GlcNAc(b1-3)Gal(b1-4)GlcNAc(b1-2)Man(a1-3)[GlcNAc(b1-3)Gal(b1-4)GlcNAc(b1-3)Gal(b1-4)GlcNAc(b1-3)Gal(b1-4)GlcNAc(b1-2)Man(a1-6)]Man(b1-4)GlcNAc(b1-4)[Fuc(a1-6)]GlcNAc
# In short: as §1
# [25] = biological target: GlcNAc(b1-3)Gal(b1-4)GlcNAc(b1-3)Gal(b1-4)GlcNAc(b1-3)Gal(b1-4)GlcNAc(b1-2)[GlcNAc(b1-3)Gal(b1-4)GlcNAc(b1-3)Gal(b1-4)GlcNAc(b1-3)Gal(b1-4)GlcNAc(b1-6)]Man(a1-6)[GlcNAc(b1-3)Gal(b1-4)GlcNAc(b1-3)Gal(b1-4)GlcNAc(b1-3)Gal(b1-4)GlcNAc(b1-2)Man(a1-3)]Man(b1-4)GlcNAc(b1-4)[Fuc(a1-6)]GlcNAc
# In short: as §1
# [26] = biological target: GlcNAc(b1-3)Gal(b1-4)GlcNAc(b1-3)Gal(b1-4)GlcNAc(b1-3)Gal(b1-4)GlcNAc(b1-3)Gal(b1-4)GlcNAc(b1-2)Man(a1-3)[GlcNAc(b1-3)Gal(b1-4)GlcNAc(b1-3)Gal(b1-4)GlcNAc(b1-3)Gal(b1-4)GlcNAc(b1-3)Gal(b1-4)GlcNAc(b1-2)Man(a1-6)]Man(b1-4)GlcNAc(b1-4)GlcNAc
# In short: as §1
# [27] = biological target: GlcNAc(b1-3)Gal(b1-4)GlcNAc(b1-3)Gal(b1-4)GlcNAc(b1-3)Gal(b1-4)GlcNAc(b1-3)Gal(b1-4)GlcNAc(b1-2)Man(a1-3)[GlcNAc(b1-3)Gal(b1-4)GlcNAc(b1-3)Gal(b1-4)GlcNAc(b1-3)Gal(b1-4)GlcNAc(b1-3)Gal(b1-4)GlcNAc(b1-2)Man(a1-6)]Man(b1-4)GlcNAc(b1-4)[Fuc(a1-6)]GlcNAc
# In short: as §1
binder,measurement,setting,value
"SHCBP1-GST (Homo sapiens), Q8NEM2 (protein) MADGSLTGGGLEAAAMAPERMGWAVEQELASLEKGLFQDEDSCSDCSYRDKPGSSLQSFMPEGKTFFPEIFQTNQLLFYERFRAYQDYILADCKASEVQEFTAEFLEKVLEPSGWRAVWHTNVFKVLVEITDVDFAALKAVVRLAEPYLCDSQVSTFTMECMKELLDLKEHRLPLQELWVVFDDSGVFDQTALAIEHVRFFYQNIWRSWDEEEEDEYDYFVRCVEPRLRLHYDILEDRVPSGLIVDYHNLLSQCEESYRKFLNLRSSLSNCNSDSEQENISMVEGLKLYSEMEQLKQKLKLIENPLLRYVFGYQKNSNIQAKGVRSSGQKITHVVSSTMMAGLLRSLLTDRLCQEPGEEEREIQFHSDPLSAINACFEGDTVIVCPGHYVVHGTFSIADSIELEGYGLPDDIVIEKRGKGDTFVDCTGADIKISGIKFVQHDAVEGILIVHRGKTTLENCVLQCETTGVTVRTSAEFLMKNSDLYGAKGAGIEIYPGSQCTLSDNGIHHCKEGILIKDFLDEHYDIPKISMVNNIIHNNEGYGVVLVKPTIFSDLQENAEDGTEENKALKIQTSGEPDVAERVDLEELIECATGKMELCARTDPSEQVEGNCEIVNELIAASTQKGQIKKKRLSELGITQADDNLMSQEMFVGIVGNQFKWNGKGSFGTFLF",glycan array binding signal (z-score),[1],0.415
same,glycan array binding signal (z-score),[2],-0.154
same,glycan array binding signal (z-score),[3],-0.282
same,glycan array binding signal (z-score),[4],-0.291
same,glycan array binding signal (z-score),[5],-0.539
same,glycan array binding signal (z-score),[6],-0.097
same,glycan array binding signal (z-score),[7],-0.619
same,glycan array binding signal (z-score),[8],-0.752
same,glycan array binding signal (z-score),[9],-0.916
same,glycan array binding signal (z-score),[10],-0.396
same,glycan array binding signal (z-score),[11],-0.103
same,glycan array binding signal (z-score),[12],0.46
same,glycan array binding signal (z-score),[13],-0.311
same,glycan array binding signal (z-score),GlcNAc(b1-3)Fuc,-0.604
same,glycan array binding signal (z-score),GlcNAc(b1-3)Gal,-0.754
same,glycan array binding signal (z-score),[14],0.01
same,glycan array binding signal (z-score),GlcNAc(b1-3)Gal(b1-4)Glc,-0.064
same,glycan array binding signal (z-score),[15],-0.099
same,glycan array binding signal (z-score),[16],0.201
same,glycan array binding signal (z-score),[17],0.952
same,glycan array binding signal (z-score),[18],1.45
same,glycan array binding signal (z-score),[19],0.222
same,glycan array binding signal (z-score),[20],1.4
same,glycan array binding signal (z-score),[21],1.04
same,glycan array binding signal (z-score),[22],0.736
same,glycan array binding signal (z-score),[23],-0.078
same,glycan array binding signal (z-score),[24],0.644
same,glycan array binding signal (z-score),[25],0.754
same,glycan array binding signal (z-score),[26],0.73
same,glycan array binding signal (z-score),[27],0.436

# Rewritten with tabs: part of the list above
binder	measurement	setting	value
SHCBP1-GST (Homo sapiens), Q8NEM2 (protein) MADGSLTGGGLEAAAMAPERMGWAVEQELASLEKGLFQDEDSCSDCSYRDKPGSSLQSFMPEGKTFFPEIFQTNQLLFYERFRAYQDYILADCKASEVQEFTAEFLEKVLEPSGWRAVWHTNVFKVLVEITDVDFAALKAVVRLAEPYLCDSQVSTFTMECMKELLDLKEHRLPLQELWVVFDDSGVFDQTALAIEHVRFFYQNIWRSWDEEEEDEYDYFVRCVEPRLRLHYDILEDRVPSGLIVDYHNLLSQCEESYRKFLNLRSSLSNCNSDSEQENISMVEGLKLYSEMEQLKQKLKLIENPLLRYVFGYQKNSNIQAKGVRSSGQKITHVVSSTMMAGLLRSLLTDRLCQEPGEEEREIQFHSDPLSAINACFEGDTVIVCPGHYVVHGTFSIADSIELEGYGLPDDIVIEKRGKGDTFVDCTGADIKISGIKFVQHDAVEGILIVHRGKTTLENCVLQCETTGVTVRTSAEFLMKNSDLYGAKGAGIEIYPGSQCTLSDNGIHHCKEGILIKDFLDEHYDIPKISMVNNIIHNNEGYGVVLVKPTIFSDLQENAEDGTEENKALKIQTSGEPDVAERVDLEELIECATGKMELCARTDPSEQVEGNCEIVNELIAASTQKGQIKKKRLSELGITQADDNLMSQEMFVGIVGNQFKWNGKGSFGTFLF	glycan array binding signal (z-score)	[4]	-0.291
same	glycan array binding signal (z-score)	[5]	-0.539
